Data taken from the supplement of paper PMC6143611.
Counter-ions that a name gives are not always drawn. ± gives the uncertainty stated by the source. The list shows a part of the results. Plates or batches differ in their baseline, so values are only roughly comparable.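 A heat-shock-induced fluorescent stripe was set in larval rod outer segments at 6 dpf. Shedding distance ran from stripe to outer segment tip, measured by confocal stacks in about three fish per compound. Controls: 0.2% DMSO vehicle. Flagged compounds showed ≥20% change from same-week control, p < 0.001 (Dunnett test on mixed-effects models).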

Tested on: Danio rerio larva rod photoreceptor outer segment
Assay: rod outer segment growth distance Dg, difference from same-week DMSO control mean; higher = more outer segment growth
Conditions: 20 µM; treatment time: 4 days (6-10 dpf)

| SMILES | rod outer segment growth distance Dg |
| --- | --- |
| O=c1ccn([C@@H]2O[C@H](CO)[C@@H](O)[C@H]2O)c(=O)[nH]1 [Uridine] | 0.27 ± 0.25 um |
| CC[C@H]1OC(=O)[C@H](C)[C@@H](O[C@H]2C[C@@](C)(OC)[C@@H](O)[C@H](C)O2)[C@H](C)[C@@H](O[C@@H]2O[C@H](C)C[C@H](N(C)C)[C@H]2O)[C@](C)(OC)C[C@@H](C)C(=O)[C@H](C)[C@@H](O)[C@]1(C)O [Clarithromycin] | -0.94 ± 0.22 um |
| NC(=O)c1ccc(I)c([N+](=O)[O-])c1 [Iniparib (BSI-201)] | -0.87 ± 0.14 um |
| CCN1CCN(C(=O)N[C@@H](C(=O)N[C@@H]2C(=O)N3C(C(=O)O)=C(CSc4nnnn4C)CS[C@H]23)c2ccc(O)cc2)C(=O)C1=O [Cefoperazone] | -0.21 ± 0.18 um |
| O=C(Nc1cccc(Cl)c1)Nc1ncc(CCNc2ncnc3ccsc23)s1 [SNS-314 Mesylate] | -2.02 ± 0.29 um |
| CN(C/C=C/C#CC(C)(C)C)Cc1cccc2ccccc12 [Terbinafine HCl] | -2.19 ± 0.61 um |
| COc1ccccc1S(=O)(=O)Nc1ccc2c(c1)CN(C)C(=O)N2 | 0.43 ± 0.21 um |
| COc1cc(OC)c(C(=O)CCCN2CCCC2)c(OC)c1 [Buflomedil HCl] | -0.33 ± 0.22 um |
| Cc1nc2n(c(=O)c1CCN1CCC(c3noc4cc(F)ccc34)CC1)CCCC2 [Risperidone] | -0.66 ± 0.25 um |
| OCc1ccccc1O[C@@H]1O[C@H](CO)[C@@H](O)[C@H](O)[C@H]1O [Salicin] | -0.65 ± 0.23 um |
| CCC[S+]([O-])c1ccc2[nH]c(NC(=O)OC)nc2c1 (configuration not stated) [Albendazole Oxide] | -0.97 ± 0.18 um |
| CN(C)CCN1C(=O)c2cccc3cc(N)cc(c23)C1=O [Amonafide] | -0.23 ± 0.27 um |
| NC(=O)c1ncn([C@@H]2O[C@H](CO)[C@@H](O)[C@H]2O)c1N [Acadesine] | -0.11 ± 0.21 um |
| CN1CCN(c2nc(C3=C(c4c[nH]c5ccccc45)C(=O)NC3=O)c3ccccc3n2)CC1 [Sotrastaurin] | -0.8 ± 0.17 um |
| CCCCCCCCCCCCCCCC(=O)O[C@@H]1[C@@H](O)[C@@H](O)[C@@H]([C@H](NC(=O)[C@@H]2C[C@@H](CCC)CN2C)[C@H](C)Cl)O[C@@H]1SC [Clindamycin palmitate HCl] | -0.31 ± 0.22 um |
| Nc1nc(Cl)nc2c1ncn2[C@H]1C[C@H](O)[C@@H](CO)O1 [Cladribine] | 0.81 ± 0.17 um |
| CC1(C)[C@H](C(=O)O)N2C(=O)C[C@H]2S1(=O)=O [Sulbactam] | 0.19 ± 0.19 um |
| C[C@@H]1O[C@@H](OC[C@H]2O[C@@H](Oc3c(-c4ccc(O)c(O)c4)oc4cc(O)cc(O)c4c3=O)[C@H](O)[C@@H](O)[C@@H]2O)[C@H](O)[C@H](O)[C@H]1O [Rutin] | -0.03 ± 0.23 um |
| C=C[C@H]1CN2CC[C@H]1C[C@H]2[C@H](O)c1ccnc2ccc(OC)cc12 [Quinine HCl Dihydrate] | 0.66 ± 0.29 um |
| CO[C@H]1C[C@@H]2CC[C@@H](C)[C@@](O)(O2)C(=O)C(=O)N2CCCC[C@H]2C(=O)O[C@H]([C@H](C)C[C@@H]2CC[C@@H](OC(=O)C(C)(CO)CO)[C@H](OC)C2)CC(=O)[C@H](C)/C=C(\C)[C@@H](O)[C@@H](OC)C(=O)[C@H](C)C[C@H](C)/C=C/C=C/C=C/1C | -0.82 ± 0.09 um |
| Oc1nc(-c2ccc(C(F)(F)F)cc2)nc2c1CSCC2 | -1.51 ± 0.14 um |
| Cc1onc(-c2ccccc2Cl)c1C(=O)N[C@@H]1C(=O)N2[C@@H]1SC(C)(C)[C@@H]2C(=O)O [Cloxacillin Sodium] | -0.76 ± 0.24 um |
| O=C(O)/C=C/c1ccc(O)c(O)c1 [Caffeic Acid] | -0.77 ± 0.41 um |
| COc1c(N2C[C@@H]3CCCN[C@@H]3C2)c(F)cc2c(=O)c(C(=O)O)cn(C3CC3)c12 [Moxifloxacin HCl] | 0.1 ± 0.15 um |
| NC(=O)c1cccc(-c2cccc(OC(=O)NC3CCCCC3)c2)c1 | 0.22 ± 0.17 um |
| CC1(COc2ccc3c(c2)ncn3-c2ccc3cccc(N4CCC(N)CC4)c3n2)COC1 | -1.58 ± 0.15 um |
| COc1cc(NS(=O)(=O)c2ccc(N)cc2)nc(OC)n1 [Sulphadimethoxine] | 1.84 ± 0.28 um |

Structures listed so far that contain an NH in an aromatic ring, in the order listed:

| SMILES | rod outer segment growth distance Dg |
| --- | --- |
| O=c1ccn([C@@H]2O[C@H](CO)[C@@H](O)[C@H]2O)c(=O)[nH]1 [Uridine] | 0.27 ± 0.25 um |
| CCC[S+]([O-])c1ccc2[nH]c(NC(=O)OC)nc2c1 (configuration not stated) [Albendazole Oxide] | -0.97 ± 0.18 um |
| CN1CCN(c2nc(C3=C(c4c[nH]c5ccccc45)C(=O)NC3=O)c3ccccc3n2)CC1 [Sotrastaurin] | -0.8 ± 0.17 um |

Tested on: Danio rerio larva rod photoreceptor outer segment
Assay: rod outer segment shedding distance Ds, difference from same-week DMSO control mean; higher = less outer segment shedding
Conditions: 20 µM; treatment time: 4 days (6-10 dpf)

| SMILES | rod outer segment shedding distance Ds |
| --- | --- |
| CCCCCCCCOc1ccccc1C(=O)Nc1ccc(C(=O)OCC[N+](C)(CC)CC)cc1 [Otilonium Bromide] | 0.33 ± 0.12 um |
| COc1ccc(COc2cc3oc(=O)c4cc(C(C)O)ccc4c3cc2OC)cc1 (configuration not stated) [Palomid 529 (P529)] | -0.49 ± 0.36 um |
| CN(C)C(=O)COC(=O)Cc1ccc(OC(=O)c2ccc(NC(=N)N)cc2)cc1 [Camostat Mesilate] | -0.31 ± 0.11 um |
| CO/N=C(\C(=O)N[C@@H]1C(=O)N2C(C(=O)O)=C(CSC(=O)c3ccco3)CS[C@H]12)c1csc(N)n1 [Ceftiofur HCl] | -0.7 ± 0.19 um |
| CCOc1nc2cccc(C(=O)O)c2n1Cc1ccc(-c2ccccc2-c2nnn[nH]2)cc1 [Candesartan] | 0.21 ± 0.14 um |
